Assay results: PMC7948473
No constants are given. Whether binding was seen depends on the method and setting. In cells and extracts the contact can be indirect. Some entries that bind do so weakly or less than the wild type. Where a sequence is shown, tags or fusion partners need not be part of it.

The chains behind the UniProt entries cited, without tags or fusion partners.
UniProt Q8N4A0: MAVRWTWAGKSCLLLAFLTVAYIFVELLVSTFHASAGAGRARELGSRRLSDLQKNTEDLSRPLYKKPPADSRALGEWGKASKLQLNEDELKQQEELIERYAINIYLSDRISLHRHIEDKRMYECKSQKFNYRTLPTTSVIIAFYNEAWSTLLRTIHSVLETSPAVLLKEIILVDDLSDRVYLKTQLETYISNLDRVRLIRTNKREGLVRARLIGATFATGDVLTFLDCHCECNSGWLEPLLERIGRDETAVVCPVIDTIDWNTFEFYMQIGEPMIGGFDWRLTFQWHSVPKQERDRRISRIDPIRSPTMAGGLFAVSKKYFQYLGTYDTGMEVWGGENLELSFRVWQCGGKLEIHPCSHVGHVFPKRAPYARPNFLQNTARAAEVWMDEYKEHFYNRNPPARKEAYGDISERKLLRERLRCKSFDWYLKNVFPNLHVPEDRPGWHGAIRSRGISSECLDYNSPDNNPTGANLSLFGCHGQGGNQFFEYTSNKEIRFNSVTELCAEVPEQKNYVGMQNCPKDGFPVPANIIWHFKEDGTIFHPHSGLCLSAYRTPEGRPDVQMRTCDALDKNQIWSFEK

Biological target: Flag-T4 (Flag-tagged full-length human ppGalNAc-T4) (human) (UniProt Q8N4A0)
Test: co-IP; HEK-293T cells co-transfected with Flag-T4 and HA-TβR Ⅰ or HA-TβR Ⅱ; whole cell lysates precipitated with anti-Flag magnetic beads, blotted with anti-HA

binding: binds
B1: HA-TβR Ⅰ (HA-tagged full-length human TGF-β type Ⅰ receptor), in HEK-293T (receptor, UniProt P36897 34-503)
chain: LQCFCHLCTKDNFTCVTDGLCFVSVTETTDKVIHNSMCIAEIDLIPRDRPFVCAPSSKTGSVTTTYCCNQDHCNKIELPTTVKSSPGLGPVELAAVIAGPVCFVCISLMLMVYICHNRTVIHHRVPNEEDPSLDRPFISEGTTLKDLIYDMTTSGSGSGLPLLVQRTIARTIVLQESIGKGRFGEVWRGKWRGEEVAVKIFSSREERSWFREAEIYQTVMLRHENILGFIAADNKDNGTWTQLWLVSDYHEHGSLFDYLNRYTVTVEGMIKLALSTASGLAHLHMEIVGTQGKPAIAHRDLKSKNILVKKNGTCCIADLGLAVRHDSATDTIDIAPNHRVGTKRYMAPEVLDDSINMKHFESFKRADIYAMGLVFWEIARRCSIGGIHEDYQLPYYDLVPSDPSVEEMRKVVCEQKLRPNIPNRWQSCEALRVMAKIMRECWYANGAARLTALRIKKTLSQLSQQEGIKM
